Experimental data as given in PMC3573112, “Compatibility in the Ustilago maydis–Maize Interaction Requires Inhibition of Host Cysteine Proteases by the Fungal Effector Pit2” (PLoS Pathogens, 2013).
No constants are given. Whether binding was seen depends on the method and setting. Binding calls can cover weak binding; strength is not graded here. Sequences can lack the tags named with a protein.

Tests used:
[1] = target: Pit2^Δ49–53 without secretion signal, Gal4 binding domain fusion (Ustilago maydis); assay: two-hybrid
[2] = target: Pit2^mut49–53 without secretion signal, Gal4 binding domain fusion (pGBKT7-Pit2^mut49–53) (Ustilago maydis); assay: two-hybrid

B1: CP2 (corn cysteine protease 2) without signal peptide and prodomain, Gal4 activation domain fusion (pGADT7-CP2) (enzyme, UniProt Q10717 143-360)
chain: LPETKDWREDGIVSPVKNQGHCGSCWTFSTTGALEAAYTQATGKPISLSEQQLVDCGFAFNNFGCNGGLPSQAFEYIKYNGGLDTEESYPYQGVNGICKFKNENVGVKVLDSVNITLGAEDELKDAVGLVRPVSVAFEVITGFRLYKSGVYTSDHCGTTPMDVNHAVLAVGYGVEDGVPYWLIKNSWGADWGDEGYFKMEMGKNMCGVATCASYPIVA
binding [1]: binds
binding [2]: binds
